Laboratory results taken from paper PMC6127602.
Results are given in words; binding and its absence hold for the method and conditions named. Binding seen in cells or lysates may run through a third protein. Some binding calls cover weakened binding; strength is not graded here.

Amino acid sequences for entries named in this document (tags omitted).
UniProt Q99836: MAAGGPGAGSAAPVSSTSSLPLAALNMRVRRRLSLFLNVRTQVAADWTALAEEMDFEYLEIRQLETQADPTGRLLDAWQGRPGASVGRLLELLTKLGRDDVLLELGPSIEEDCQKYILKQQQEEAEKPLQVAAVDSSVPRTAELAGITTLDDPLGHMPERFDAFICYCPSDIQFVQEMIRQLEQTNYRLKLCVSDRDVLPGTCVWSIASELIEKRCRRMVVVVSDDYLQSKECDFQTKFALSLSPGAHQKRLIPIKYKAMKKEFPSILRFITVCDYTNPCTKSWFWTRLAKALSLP
UniProt Q13485: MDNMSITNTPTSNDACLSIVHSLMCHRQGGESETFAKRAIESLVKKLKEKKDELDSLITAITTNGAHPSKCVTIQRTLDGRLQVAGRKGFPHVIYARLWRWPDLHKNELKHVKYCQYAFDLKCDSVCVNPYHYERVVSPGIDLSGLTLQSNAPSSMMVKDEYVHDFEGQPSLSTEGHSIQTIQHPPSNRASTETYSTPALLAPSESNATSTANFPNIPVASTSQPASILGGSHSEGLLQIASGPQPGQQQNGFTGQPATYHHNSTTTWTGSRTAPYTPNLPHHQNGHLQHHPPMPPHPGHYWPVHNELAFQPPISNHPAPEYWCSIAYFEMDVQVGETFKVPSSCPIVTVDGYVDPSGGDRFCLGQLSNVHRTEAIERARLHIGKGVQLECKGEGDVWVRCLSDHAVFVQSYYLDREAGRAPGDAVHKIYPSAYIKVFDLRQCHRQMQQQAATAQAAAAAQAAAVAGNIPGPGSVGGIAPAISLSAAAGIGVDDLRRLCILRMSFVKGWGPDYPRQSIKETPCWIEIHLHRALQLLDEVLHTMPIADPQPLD

Legend:
[1] = biological target: endogenous MyD88 of Huh7 cells (human (endogenous in Huh7)) (UniProt Q99836); experiment: co-IP; both proteins endogenous; Huh7 cells treated with BMP6 for 24 h; methods list an anti-MyD88 antibody for IP
[2] = biological target: endogenous MyD88 of HepG2 cells (human (endogenous in HepG2)) (UniProt Q99836); experiment: co-IP; both proteins endogenous; HepG2 cells (Supplementary Figure S1H)
[3] = biological target: Flag-tagged SMAD4 (pRK-DPC4-Flag), expressed in Huh7 cells (UniProt Q13485); experiment: co-IP; Huh7 cells transfected with one tagged partner, the other endogenous; RIPA lysate; IP by the tag

Substance: endogenous SMAD4 of Huh7 cells (from UniProt Q13485 1-552)
- binding [1]: binds

Substance: endogenous SMAD4 of HepG2 cells (from UniProt Q13485 1-552)
- binding [2]: binds

Substance: endogenous MyD88 of Huh7 cells (from UniProt Q99836 1-296)
- binding [3]: binds
